Data reported in doi:10.1101/2025.11.13.688167.
These are yes or no findings as the source states them, for the method shown. For some assays here: In cells and extracts the contact can be indirect. Some results given as binding are weak or reduced against the parent protein; the word gives no strength. Blank lines part the entries; values can stand above or below the molecule they belong to.

Chains of the proteins cited; added tags and fusions are not shown. Residues count along the entry.
UniProt Q8ZPP9, residues 22-79: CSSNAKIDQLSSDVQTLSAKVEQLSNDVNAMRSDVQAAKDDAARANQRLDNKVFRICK

Assays:
[1] = target: LppB from Salmonella enterica serovar Typhimurium LT2 (S. Typhimurium LT2) (UniProt Q8ZPP9); assay: non-reducing SDS-PAGE and Western blot
[2] = target: LppB from Salmonella enterica serovar Typhimurium LT2 (S. Typhimurium LT2) (UniProt Q8ZPP9); assay: reducing SDS-PAGE and Western blot
[3] = target: LppB from Salmonella enterica serovar Typhimurium LT2 (S. Typhimurium LT2) (UniProt Q8ZPP9); assay: cross-linking
[4] = target: T1, Lpp (Braun's lipoprotein) from Escherichia coli (E. coli (endogenous in DH300)) (UniProt P69776); assay: cross-linking
T1 sequence (chain, tri-acylated N-terminal cysteine): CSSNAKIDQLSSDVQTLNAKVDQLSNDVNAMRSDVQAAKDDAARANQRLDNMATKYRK

Molecule: LppB from Salmonella enterica serovar Typhimurium LT2 (from UniProt Q8ZPP9 22-79)
binding [1]: binds
binding [2]: no binding (condition: with 30 mM DTT)
binding [3]: binds
binding [4]: binds

binding [4]: binds
B1: Lpp (Braun's lipoprotein) from Escherichia coli (protein, UniProt P69776 21-78)
chain: T1 sequence (chain, tri-acylated N-terminal cysteine)
modifications: tri-acylated N-terminal cysteine
